Experimental data: paper PMC11091344
No constants are given. Whether binding was seen depends on the method and setting. Binding seen in cells or lysates may run through a third protein. Some results given as binding are weak or reduced against the parent protein; the word gives no strength. For some assays here: Tags and fused reporters may be left off the sequences shown.

By UniProt entry, the sequences of proteins in these tests, tags left out.
UniProt Q9R0P9: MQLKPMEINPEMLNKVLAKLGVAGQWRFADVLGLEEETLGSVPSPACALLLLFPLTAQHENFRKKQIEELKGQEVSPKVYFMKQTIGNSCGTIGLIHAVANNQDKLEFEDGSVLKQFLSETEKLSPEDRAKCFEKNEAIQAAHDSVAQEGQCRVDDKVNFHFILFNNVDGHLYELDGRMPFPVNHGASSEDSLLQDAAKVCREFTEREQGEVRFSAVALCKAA

What was measured:
[1] = target: T1, Metrnl, endogenous in RAW264.7 cells (mouse (endogenous in RAW264.7)) (UniProt Q8VE43); test: co-IP; endogenous proteins of RAW264.7 cells; NP40 lysis; antibodies 6 hours, then magnetic beads (protein A/G) overnight with the supernatant; Western blot ('in vivo' Co-IP of the paper)
T1 sequence: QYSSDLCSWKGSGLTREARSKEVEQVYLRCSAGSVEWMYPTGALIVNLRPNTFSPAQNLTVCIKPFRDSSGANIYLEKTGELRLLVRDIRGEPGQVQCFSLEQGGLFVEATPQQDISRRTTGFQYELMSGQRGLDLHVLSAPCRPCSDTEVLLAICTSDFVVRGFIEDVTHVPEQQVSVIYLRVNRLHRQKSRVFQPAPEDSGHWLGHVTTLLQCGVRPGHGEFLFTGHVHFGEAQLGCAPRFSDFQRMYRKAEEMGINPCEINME

[2] = target: T2, Flag-Metrnl (Meteorin-like) (UniProt Q641Q3); test: co-IP; HEK293T cells co-transfected with Flag-Metrnl and a Myc-tagged plasmid; NP40 lysis; magnetic beads with the supernatant overnight at 4°C; Western blot ('in vitro' Co-IP of the paper)
T2 sequence: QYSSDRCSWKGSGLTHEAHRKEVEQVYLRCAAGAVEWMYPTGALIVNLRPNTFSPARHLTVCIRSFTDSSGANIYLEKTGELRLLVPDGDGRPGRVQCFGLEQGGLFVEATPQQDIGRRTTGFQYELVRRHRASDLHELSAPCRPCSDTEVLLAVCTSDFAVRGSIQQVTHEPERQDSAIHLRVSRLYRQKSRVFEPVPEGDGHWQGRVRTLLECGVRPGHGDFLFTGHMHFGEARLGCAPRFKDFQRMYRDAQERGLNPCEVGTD

UCHL1, endogenous in RAW264.7 cells (from UniProt Q9R0P9 1-223)
binding [1]: binds

B1: Myc-CPT1B (protein, UniProt Q92523 1-772)
chain: MAEAHQAVAFQFTVTPDGVDFRLSREALKHVYLSGINSWKKRLIRIKNGILRGVYPGSPTSWLVVIMATVGSSFCNVDISLGLVSCIQRCLPQGCGPYQTPQTRALLSMAIFSTGVWVTGIFFFRQTLKLLLCYHGWMFEMHGKTSNLTRIWAMCIRLLSSRHPMLYSFQTSLPKLPVPRVSATIQRYLESVRPLLDDEEYYRMELLAKEFQDKTAPRLQKYLVLKSWWASNYVSDWWEEYIYLRGRSPLMVNSNYYVMDLVLIKNTDVQAARLGNIIHAMIMYRRKLDREEIKPVMALGIVPMCSYQMERMFNTTRIPGKDTDVLQHLSDSRHVAVYHKGRFFKLWLYEGARLLKPQDLEMQFQRILDDPSPPQPGEEKLAALTAGGRVEWAQARQAFFSSGKNKAALEAIERAAFFVALDEESYSYDPEDEASLSLYGKALLHGNCYNRWFDKSFTLISFKNGQLGLNAEHAWADAPIIGHLWEFVLGTDSFHLGYTETGHCLGKPNPALAPPTRLQWDIPKQCQAVIESSYQVAKALADDVELYCFQFLPFGKGLIKKCRTSPDAFVQIALQLAHFRDRGKFCLTYEASMTRMFREGRTETVRSCTSESTAFVQAMMEGSHTKADLRDLFQKAAKKHQNMYRLAMTGAGIDRHLFCLYLVSKYLGVSSPFLAEVLSEPWRLSTSQIPQSQIRMFDPEQHPNHLGAGGGFGPVADDGYGVSYMIAGENTIFFHISSKFSSSETNAQRFGNHIRKALLDIADLFQVPKAYS
binding [2]: no binding
